PubChem BioAssay AID686937 – Drosophila RNAi Screening Center – 2013

Test: 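Genes whose loss weakens secretory pathway function in fly cells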 (primary screen)
Cells: Drosophila S2 cells expressing secreted horseradish peroxidase
Reagents: long dsRNA against Drosophila genes
Time to read-out: about 5.5 days (5 days dsRNA, then 12 h reporter induction)
Challenge: reporter expression induced after 5 days of dsRNA, read 12 h later; inducer not stated
Read-out: 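After 5 days of dsRNA and 12 h of reporter induction, medium peroxidase read by chemiluminescence and scored as per-plate z-score; higher values mean more reporter released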
Direction: z-score: higher = more reporter secreted into medium
The screen tested about 23,000 reagents; shown is a random part of those with a known target gene and a result. 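Reduced-secretion tags in replicate 1 do not always agree with the z-scores; no criterion for assigning the tags was given.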 Not all columns of the deposit are shown. Not stated in the record: the amount of reagent.

With knock-down of CG11251 [DRSC09825] the results were z-score, replicate 1 = 0.59.
After knock-down of CG13377 [DRSC18622], the screen gave z-score, replicate 1 = 0.25.
With knock-down of CG15450 [DRSC20522], the screen gave z-score, replicate 1 = -2.87.
CG31211 [DRSC14953] gave z-score, replicate 1 = -0.47.
With knock-down of CG31211 [DRSC15344], the screen gave z-score, replicate 1 = 0.48.
CG31211 [DRSC21478] scored z-score, replicate 1 = -0.62.
For CtIP [DRSC11785], the entry reads z-score, replicate 1 = 0.4.
Silencing of Ktch [DRSC15094] resulted in: z-score, replicate 1 = 0.09.
After knock-down of Zdhhc8 [DRSC18044], the record shows z-score, replicate 1 = -0.22.
Zdhhc8 [DRSC18122] showed z-score, replicate 1 = 0.53.
Nep1 [DRSC18388] scored z-score, replicate 1 = 0.38.
For Nep1 [DRSC18389], the values are z-score, replicate 1 = -1.65; phenotype, replicate 1 = reduced secretion.
After knock-down of CG14312 [DRSC14791] the results were z-score, replicate 1 = 0.39.
CG33458 [DRSC22891] showed z-score, replicate 1 = -0.37.
Silencing of Pcyt2 [DRSC08531] gave: z-score, replicate 1 = 0.06.
Silencing of hdly [DRSC15849] gave: z-score, replicate 1 = 0.23.
Against CG33958 [DRSC06472], the entry reads z-score, replicate 1 = 0.15.
Against CG33958 [DRSC06944], the values are z-score, replicate 1 = 0.09.
Against RpL10Aa [DRSC15518] the deposit lists z-score, replicate 1 = -2.34; phenotype, replicate 1 = reduced secretion.
With knock-down of Hibch [DRSC15705] the results were z-score, replicate 1 = 0.1.
With knock-down of Osi20 [DRSC12568], the screen gave z-score, replicate 1 = 0.5.
Depletion of Alh [DRSC12447] came out at: z-score, replicate 1 = -5.21; phenotype, replicate 1 = reduced secretion.
Knock-down of Alh [DRSC12487] came out at: z-score, replicate 1 = 0.36.
After knock-down of Alh [DRSC12488] the results were z-score, replicate 1 = 0.36.
CG4956 [DRSC15683] scored z-score, replicate 1 = 0.11.
After knock-down of Ucp4C [DRSC03132] the results were z-score, replicate 1 = 0.17.
Against DnaJ-H [DRSC03273] the deposit lists z-score, replicate 1 = 0.25.

No new results follow: entries from further up.
CG15450 [DRSC20522]: z-score, replicate 1 = -2.87
CG31211 [DRSC14953]: z-score, replicate 1 = -0.47
CG31211 [DRSC15344]: z-score, replicate 1 = 0.48
CG31211 [DRSC21478]: z-score, replicate 1 = -0.62
CtIP [DRSC11785]: z-score, replicate 1 = 0.4
